Experimental data published in publication PMC7819943, “Rice protein-binding microarrays: a tool to detect cis-acting elements near promoter regions in rice”.
Some of the results follow.

Each sequence was assayed against T1, OsSMF1 (Oryza sativa, UniProt Q6ZLB0 1-436) (assay: protein-binding microarray (RPBM); PBS, 2% BSA, 51.3 ng/ul salmon testes DNA, 50 uM zinc acetate, 200 nM TF, 25 C, 1 h; high values mean tight binding). Conditions: protein: recombinant; tags: N-terminal polyhistidine and DsRed monomer fusion (pET32a); chain copies: 2; label: CyDye5-dUTP incorporated in the synthesized complementary strand; 3' TTTTT single-stranded linker to array surface; dsDNA, one strand shown.
T1 sequence: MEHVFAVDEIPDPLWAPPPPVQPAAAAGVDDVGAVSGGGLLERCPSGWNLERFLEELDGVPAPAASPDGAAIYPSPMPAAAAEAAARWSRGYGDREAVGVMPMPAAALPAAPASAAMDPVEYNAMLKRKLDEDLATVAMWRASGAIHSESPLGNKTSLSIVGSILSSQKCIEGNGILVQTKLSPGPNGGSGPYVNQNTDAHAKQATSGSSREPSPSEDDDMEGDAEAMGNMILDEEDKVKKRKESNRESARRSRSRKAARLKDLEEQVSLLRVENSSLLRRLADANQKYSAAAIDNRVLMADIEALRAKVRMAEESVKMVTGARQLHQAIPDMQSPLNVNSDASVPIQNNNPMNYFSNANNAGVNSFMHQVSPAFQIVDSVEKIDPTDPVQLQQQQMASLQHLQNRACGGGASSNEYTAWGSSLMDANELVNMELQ
Method in brief: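 An Axon 4000B scanner gave the binding signal as per-feature fluorescence intensity in arbitrary units. This followed washing of a custom Agilent array that had been incubated for 1 h at 25 °C with 200 nM protein in PBS, 2% BSA, salmon testes DNA and 50 µM zinc acetate. The proteins were transcription factors fused at the N-terminus to polyhistidine and DsRed, expressed in E. coli BL21-CodonPlus and purified on Ni–NTA.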

Sequence | binding signal
GGCGGCGTTCGCGGCGGCGACGTGGGCGTACCTGACGGCGCGGAGTCACCTAGTGCAG | 3590 fluorescence intensity (a.u.)
GAAGAAGATTGGGTTGCTAACACGTGGGTCTCACGCTGACCGGAGTCACCTAGTGCAG | 6580 fluorescence intensity (a.u.)
CCTCTTGTTTCCGCCATGCCGTGGGCTCAAACCGCCGGCGCGGAGTCACCTAGTGCAG | 4140 fluorescence intensity (a.u.)
CCCTCGGGGAGAGCCACGTGGGTTTGAGGGCGGCCTCCTCCGGAGTCACCTAGTGCAG | 10700 fluorescence intensity (a.u.)
AGAAAGAAAGCTCAGTTTCCAAGCGACAAAGCGATCAGTACGGAGTCACCTAGTGCAG | 23700 fluorescence intensity (a.u.)
TAGGAGAAACACGTCAGCTACAGTGTTGAGCTGGATGAGTCGGAGTCACCTAGTGCAG | 6830 fluorescence intensity (a.u.)
GGTATGATTAATCACACACACAAACGAGAAGTCCAATTCGCGGAGTCACCTAGTGCAG | 27400 fluorescence intensity (a.u.)
GGGGAAGGGAGGGAGGAGTGTATAGAGTATAGGGGAGCGGCGGAGTCACCTAGTGCAG | 3170 fluorescence intensity (a.u.)
GGAGGGGTATGGAAGGGATCAAAATCAAATTTTAGGGGTACGGAGTCACCTAGTGCAG | 3160 fluorescence intensity (a.u.)
CTGACCCTTGCATCCCAACTACTAGATATAATTGTGGATACGGAGTCACCTAGTGCAG | 3610 fluorescence intensity (a.u.)
ACACGTGCCTCGTCCCACCTGTCCGCGTCACCCGTCTCTCCGGAGTCACCTAGTGCAG | 7100 fluorescence intensity (a.u.)
CACGCAGTAGGGATCGAGGATGTCGTACGCGTACCTCTTCCGGAGTCACCTAGTGCAG | 26100 fluorescence intensity (a.u.)
AGGGGCACCCTCGTAATTTCCACGCACCCAAATTTCAAACCGGAGTCACCTAGTGCAG | 3630 fluorescence intensity (a.u.)
TGAGAGTTACTGATCGAACACGTACTATAATTATATAATACGGAGTCACCTAGTGCAG | 3280 fluorescence intensity (a.u.)
CAAGATGAATCTTTTAAGCCTAATTGCGTCATGATTTGACCGGAGTCACCTAGTGCAG | 7370 fluorescence intensity (a.u.)
AGGCCGCGCTCCTCACCCGCCACGCGCTCCACTCCAACTGCGGAGTCACCTAGTGCAG | 4680 fluorescence intensity (a.u.)
TCGGTCGTTCCGCCGTAGGCGTGGCCGGGGAGTAATCCTACGGAGTCACCTAGTGCAG | 32000 fluorescence intensity (a.u.)
GCCGATTTGTTCACGTGACGTGTGCAGGCACACACTGGCCCGGAGTCACCTAGTGCAG | 15400 fluorescence intensity (a.u.)
GGTATATATATATATTTCATCGAGTACACATCACAATTTGCGGAGTCACCTAGTGCAG | 4280 fluorescence intensity (a.u.)
TGCTTGCATCAAAGCCCCAGTAGCTAAGCTAACAGTAGTGCGGAGTCACCTAGTGCAG | 18400 fluorescence intensity (a.u.)
ATAAAATATTTTGATGCACATTTTACAAATTTTACTGGTGCGGAGTCACCTAGTGCAG | 3420 fluorescence intensity (a.u.)

Some of the entries so far, in markdown:

| Sequence | binding signal |
| --- | --- |
| CTGACCCTTGCATCCCAACTACTAGATATAATTGTGGATACGGAGTCACCTAGTGCAG | 3610 fluorescence intensity (a.u.) |
| ACACGTGCCTCGTCCCACCTGTCCGCGTCACCCGTCTCTCCGGAGTCACCTAGTGCAG | 7100 fluorescence intensity (a.u.) |
| CACGCAGTAGGGATCGAGGATGTCGTACGCGTACCTCTTCCGGAGTCACCTAGTGCAG | 26100 fluorescence intensity (a.u.) |
| AGGGGCACCCTCGTAATTTCCACGCACCCAAATTTCAAACCGGAGTCACCTAGTGCAG | 3630 fluorescence intensity (a.u.) |
| TGAGAGTTACTGATCGAACACGTACTATAATTATATAATACGGAGTCACCTAGTGCAG | 3280 fluorescence intensity (a.u.) |
| CAAGATGAATCTTTTAAGCCTAATTGCGTCATGATTTGACCGGAGTCACCTAGTGCAG | 7370 fluorescence intensity (a.u.) |
| AGGCCGCGCTCCTCACCCGCCACGCGCTCCACTCCAACTGCGGAGTCACCTAGTGCAG | 4680 fluorescence intensity (a.u.) |
| TCGGTCGTTCCGCCGTAGGCGTGGCCGGGGAGTAATCCTACGGAGTCACCTAGTGCAG | 32000 fluorescence intensity (a.u.) |

Further records follow.

Sequence | binding signal
TCCGACTCGTCGCCGTCGTTGCCGTCATTAAACCGGCTTTCGGAGTCACCTAGTGCAG | 3590 fluorescence intensity (a.u.)
CTCTCACCATGCAAGATTTCCTTAGATTTGAGTTGAGTCACGGAGTCACCTAGTGCAG | 3150 fluorescence intensity (a.u.)
TCGCTGATGAAAATGATGAGCATGGTGAGGGGAAGAAGGGCGGAGTCACCTAGTGCAG | 22400 fluorescence intensity (a.u.)
GTATTAAGATGTGTCATATCCAGCGTTTACAACTCCGAGACGGAGTCACCTAGTGCAG | 6050 fluorescence intensity (a.u.)
ACCATCACTAACTTTAGATGACGCGATGTGGATGTAGGTCCGGAGTCACCTAGTGCAG | 6640 fluorescence intensity (a.u.)
TCAGCGGGCATGGCCGGGGATTAACGCGCGCGCGTGGACACGGAGTCACCTAGTGCAG | 3770 fluorescence intensity (a.u.)
CCGCTCGCCGCCGGTTCGGAGACCGCGTCACTGATTGGCCCGGAGTCACCTAGTGCAG | 4860 fluorescence intensity (a.u.)
ATTGTGAAGAAATTTTGCCACATTTGCATTACCATTGGCTCGGAGTCACCTAGTGCAG | 3860 fluorescence intensity (a.u.)
CTGCACGGCCGCCATGATTCATCATCATTCGTAGGCTCATCGGAGTCACCTAGTGCAG | 3380 fluorescence intensity (a.u.)
GCCAAGGTGGTGGACGCCCGACGTGAAGCTGCCCTCCACCCGGAGTCACCTAGTGCAG | 3250 fluorescence intensity (a.u.)
CCCACATGTCCGTGACCCCGCAACGTCTCCACCTTTTCGGCGGAGTCACCTAGTGCAG | 3540 fluorescence intensity (a.u.)
GGCCGTACGTCACGACTCCGTACGTGGCCACGTTACGCAGCGGAGTCACCTAGTGCAG | 6440 fluorescence intensity (a.u.)
AAAGAAAAGCACGAATGATGTGTATTTTAACGTGTACATGCGGAGTCACCTAGTGCAG | 4870 fluorescence intensity (a.u.)
GGAAGGCCACGACAATCCATTTTAAGTCGTATAATTAACCCGGAGTCACCTAGTGCAG | 3180 fluorescence intensity (a.u.)
CATGCCGGCTAAACACATGCATGCGTGTGTGATGCGTGTGCGGAGTCACCTAGTGCAG | 4980 fluorescence intensity (a.u.)
CGTCATCCTCGTCATTGAATCCCTTGTCATCGAAGAACGGCGGAGTCACCTAGTGCAG | 5130 fluorescence intensity (a.u.)
TTGCTGCAGTTCTCGTATGCTTCCTAGTACTATCTGCGTTCGGAGTCACCTAGTGCAG | 3230 fluorescence intensity (a.u.)
CTTCTGTTGCTCTCTTCAACAACTGTATGGGCCCAAGCCCCGGAGTCACCTAGTGCAG | 19000 fluorescence intensity (a.u.)
TTCAGTCGCTGACATCAGTTCAGCCTGACTTGTTCCAATACGGAGTCACCTAGTGCAG | 3660 fluorescence intensity (a.u.)
ATATATATATATATATATATGGCAACGTAATCCTTCTGTTCGGAGTCACCTAGTGCAG | 3440 fluorescence intensity (a.u.)
CTCTGGGTAGTTATGACGTTATACTGGGTATGGATTGGCTCGGAGTCACCTAGTGCAG | 4060 fluorescence intensity (a.u.)
